Experimental data reported in patent US20230050846A1 (LIFESEARCH, priority 2019, published 2023).
End groups of sequences in plain letters are not given here.

Experiment: peptide made by a vendor (Fmoc solid-phase peptide synthesis)
Details: whole synthesis, acetate salts (Formula (I)-(IV)); trifluoroacetate salt (His-tag and biotin variants)

GSDQSENVDRGAGSIREAGGAFGKREQAEEERYFRAQSREQLAALKKHHEEEIVHHKKEIERLQKEIERHKQKIKMLKHDD
final purity (method not given): >80%
